## Melanoma cell counts after drug treatment

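Human melanoma cells were exposed to a pair of drugs for 72 h in 1,536-well plates and read by automated microscopy after fixing and staining. The read-out is cell count (nuclei) in % of the DMSO control; lower values mean stronger growth inhibition or killing. Concentrations were fixed for each drug; these are the lower of two levels, a fifth of the higher. These are primary screening values without error estimates.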
Only some of the drugs and lines screened are listed, without regard to their results.
An entry leaves out what has no value listed here.

Drugs:
tipifarnib: Cn1cncc1[C@@](N)(c1ccc(Cl)cc1)c1ccc2c(c1)c(-c1cccc(Cl)c1)cc(=O)n2C at 0.01 µM
temozolomide: Cn1nnc2c(C(N)=O)ncn2c1=O at 2 µM
BI-D1870: CC(C)CCN1c2nc(Nc3cc(F)c(O)c(F)c3)ncc2N(C)C(=O)C1C (centres undefined) at 0.2 µM
docetaxel: CC(=O)O[C@@]12CO[C@@H]1C[C@H](O)[C@@]1(C)C(=O)[C@H](O)C3=C(C)[C@@H](OC(=O)[C@H](O)[C@@H](NC(=O)OC(C)(C)C)c4ccccc4)C[C@@](O)([C@@H](OC(=O)c4ccccc4)[C@H]21)C3(C)C at 0.0001 µM

For BI-D1870 + docetaxel the values were IPC-298: 66.6; COLO 829: 55.8; C32: 80.5; LOX IMVI: 51.1; 501mel: 62.1; COLO 792: 34.9; A101D: 68.5; LB2518-MEL: 64.7; COLO 800: 31.6; MEL-HO: 54.0; IST-MEL1: 60.8; A2058: 14.0; G-361: 27.3.
For docetaxel + tipifarnib the values were IPC-298: 64.3; COLO 829: 43.8; C32: 74.0; LOX IMVI: 71.4; A375: 20.6; COLO 792: 40.6; A101D: 70.4; LB2518-MEL: 61.4; COLO 800: 34.8; MEL-HO: 62.0; IST-MEL1: 55.0; A2058: 11.4; G-361: 23.9.
For docetaxel + temozolomide the values were IPC-298: 57.4; COLO 829: 50.5; C32: 78.9; LOX IMVI: 56.9; A375: 18.5; COLO 792: 34.1; A101D: 67.3; LB2518-MEL: 62.3; COLO 800: 44.5; MEL-HO: 55.5; IST-MEL1: 66.1; A2058: 8.1; G-361: 24.6.
For tipifarnib + BI-D1870 the values were IPC-298: 86.2; COLO 829: 100; C32: 78.8; LOX IMVI: 99.1; A375: 70.6; 501mel: 93.4; COLO 792: 87.9; A101D: 74.0; LB2518-MEL: 95.8; COLO 800: 83.0; MEL-HO: 82.5; IST-MEL1: 99.5; A2058: 93.2; G-361: 80.4.
For BI-D1870 + temozolomide the values were IPC-298: 94.3; COLO 829: 136; C32: 95.3; LOX IMVI: 90.8; A375: 76.7; 501mel: 114; COLO 792: 98.1; A101D: 87.8; LB2518-MEL: 105; COLO 800: 134; MEL-HO: 80.0; IST-MEL1: 97.9; A2058: 81.5; G-361: 94.3.

Values as published with doi:10.1371/journal.pone.0140310, rounded.